For part of these data: Part of at least one peptide drawing is inferred or uncertain, most often the ends. Some results were stated once for a whole list of compounds, not compound by compound. Where a SMILES comes first, the peptide text is derived from it. The star is where a group is joined. Biotin = O=C1N[C@H]2[C@H](CS[C@H]2CCCCC(=O)*)N1
Experiments:
[1] = test system: CCRF-CEM; assay: Cell survival, mutants of MDOKSH peptide; type: cell-based; settings: expressed relative to the activity of the parental peptide MDOKSH
Text: (§1) In order to maximize the effects of cytotoxic peptides, alanine scanning of one peptide (MDOKSH) was undertaken as an illustration. 48 mutants were synthesized, purified and tested in CCRF-CEM and MCF-7. The cytotoxicity of the 48 peptides was strongly correlated in the two cell line assay systems (r=0.606). […] The core MBD sequence may, if desired, be excluded from the region to be explored by mutagenesis, in order to expedite the experiment.

[2] = test system: MCF-7; assay: Cell survival, mutants of MDOKSH peptide; type: cell-based; design: unit not given here; settings: expressed relative to the activity of the parental peptide MDOKSH
Text: as §1

[3] = fed orally; cited from earlier work

Compound	CELL SURVIVAL, CCRF-CEM [1]	CELL SURVIVAL, MCF-7 [2]	Blood levels [3]
CC(C)C[C@H](NC(=O)[C@H](C)NC(=O)[C@H](CCCCN)NC(=O)[C@H](Cc1c[nH]c2ccccc12)NC(=O)[C@H](CS)NC(=O)[C@H](Cc1ccccc1)NC(=O)CNC(=O)[C@H](CCCNC(=N)N)NC(=O)[C@H](CCCCN)NC(=O)[C@H](CCCNC(=N)N)NC(=O)CNC(=O)[C@H](CCCCN)NC(=O)[C@H](CO)NC(=O)[C@@H]1CCCN1C(=O)[C@H](CCCNC(=N)N)NC(=O)[C@H](CS)NC(=O)[C@H](CCC(N)=O)NC(=O)[C@H](CCCCN)NC(=O)[C@H](CCCCN)NC(=O)[C@H](CCCCN)NC(=O)[C@H](Cc1ccc(O)cc1)NC(=O)[C@H](Cc1ccccc1)NC(=O)CNC(=O)[C@H](CCCCN)NC(=O)[C@H](CCCCN)NC(=O)CCCC[C@@H]1SC[C@@H]2NC(=O)N[C@@H]21)C(=O)N[C@@H](Cc1ccc(O)cc1)C(=O)N[C@@H](Cc1c[nH]c2ccccc12)C(=O)N[C@@H](CC(=O)O)C(=O)N[C@@H](CC(C)C)C(=O)N[C@@H](Cc1ccc(O)cc1)C(=O)N[C@@H](CCC(=O)O)C(=O)O [Mutant 27] (Biotin-KKGFYKKKQCRPSKGRKRGFCWKALYWDLYE-OH)	41.0 ± 5.1	38.8 ± 7.5	–
CC(C)=CCC/C(C)=C/C=C/C(C)=C/C=C/C(C)=C/C=C/C=C(C)/C=C/C=C(C)/C=C/C=C(\C)CCC=C(C)C [lycopene]	–	–	exceeding 20 nM

Source: patent US7618816B2, “Metal-binding therapeutic peptides” (Ontherix, Inc., priority 2005, dated 2009)
